The results in this text go back to PMC10541204.

By UniProt entry, the sequences of proteins in these tests, tags left out.
UniProt Q15025: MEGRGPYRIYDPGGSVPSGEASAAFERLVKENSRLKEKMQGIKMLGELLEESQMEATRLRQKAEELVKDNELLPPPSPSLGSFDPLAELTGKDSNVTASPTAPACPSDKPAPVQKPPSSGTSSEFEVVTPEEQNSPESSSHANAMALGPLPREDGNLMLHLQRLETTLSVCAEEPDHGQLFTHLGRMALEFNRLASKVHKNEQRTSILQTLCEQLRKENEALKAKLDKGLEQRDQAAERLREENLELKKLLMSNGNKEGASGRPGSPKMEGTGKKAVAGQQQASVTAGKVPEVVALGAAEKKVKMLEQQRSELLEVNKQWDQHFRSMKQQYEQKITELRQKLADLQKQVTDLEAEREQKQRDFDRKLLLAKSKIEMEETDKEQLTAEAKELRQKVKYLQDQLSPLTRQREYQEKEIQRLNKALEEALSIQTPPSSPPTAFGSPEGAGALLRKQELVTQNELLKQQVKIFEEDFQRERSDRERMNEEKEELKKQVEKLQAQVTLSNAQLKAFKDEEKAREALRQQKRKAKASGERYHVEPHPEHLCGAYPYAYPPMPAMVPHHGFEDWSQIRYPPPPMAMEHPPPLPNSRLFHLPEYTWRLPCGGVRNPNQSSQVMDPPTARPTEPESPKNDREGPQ
UniProt Q9Y6K9: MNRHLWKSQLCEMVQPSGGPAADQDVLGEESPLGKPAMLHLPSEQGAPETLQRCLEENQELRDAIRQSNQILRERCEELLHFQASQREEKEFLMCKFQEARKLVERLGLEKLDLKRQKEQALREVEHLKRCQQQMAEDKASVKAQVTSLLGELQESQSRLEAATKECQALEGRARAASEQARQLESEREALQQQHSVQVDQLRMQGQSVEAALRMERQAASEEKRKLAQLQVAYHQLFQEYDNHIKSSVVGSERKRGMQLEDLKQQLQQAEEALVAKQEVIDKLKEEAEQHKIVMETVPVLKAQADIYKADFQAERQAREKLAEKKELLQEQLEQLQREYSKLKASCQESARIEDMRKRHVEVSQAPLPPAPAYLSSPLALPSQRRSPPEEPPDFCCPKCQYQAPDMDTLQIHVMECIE

The target of this experiment is TNIP1 (human (endogenous in HRMECs)) (UniProt Q15025). Put plainly: co-IP; HRMEC lysate in RIPA buffer with protease inhibitor; supernatants immunoprecipitated with indicated antibodies overnight at 4°C, protein G-agarose beads 2 hours, immunoblotting.

Results are given in words; binding and its absence hold for the method and conditions named. Binding seen in cells or lysates may run through a third protein. Some entries that bind do so weakly or less than the wild type.

As for “NF-κB essential modulator (from UniProt Q9Y6K9 1-419)”, the binding result is on record as “binds”.
